Test results reported in patent US6603023B2 (priority 1996, dated 2003).
Counter-ions that a name gives are not always drawn. The amount applied is not stated for every result.

system: CCRF-CEM; experiment: Drug combination analysis (combination index, XTT, 72 h); format: cell-based, human

Point of comparison: `CC(=O)O[C@H]1C(=O)[C@@]2(C)[C@H]([C@H](OC(=O)c3ccccc3)[C@]3(O)C[C@H](OC(=O)[C@H](O)[C@@H](NC(=O)c4ccccc4)c4ccccc4)C(C)=C1C3(C)C)[C@]1(OC(C)=O)CO[C@@H]1C[C@@H]2O` [Taxol ®, paclitaxel], “m (median-effect plot parameter)” value 2.147. Against it:
- C/C(=C\c1csc(C)n1)[C@@H]1C[C@@H]2O[C@]2(C)CCC[C@H](C)[C@H](O)[C@@H](C)C(=O)C(C)(C)[C@@H](O)CC(=O)O1 [#8, epothilone B] — lower, 1.716
- CC[C@]1(O)C[C@@H]2CN(CCc3c([nH]c4ccccc34)[C@@](C(=O)OC)(c3cc4c(cc3OC)N(C)[C@H]3[C@@](O)(C(=O)OC)[C@H](OC(C)=O)[C@]5(CC)C=CCN6CC[C@]43[C@@H]65)C2)C1 [Vinblastine, Vinblastine sulfate] — lower, 1.762
